The values that follow come from US20230172981A1, “METHODS AND COMPOSITIONS FOR STIMULATION OF CHIMERIC ANTIGEN RECEPTOR T CELLS WITH HAPTEN LABELLED CELLS” (Seattle Children's Hospital (dba Seattle Children's …, priority 2020, published 2023).

The data set deals with CD19+ Raji cells (lymphoma cell line). The experiment in a line: Flow cytometry for FL on hapten-labeled Raji cells. It is filed as cell-based.

Take `CCCCCCCCCCCCCCCC(=O)OCC(COP(=O)(O)OCCNC(=S)Nc1ccc2c(c1)C(=O)OC21c2ccc(O)cc2Oc2cc(O)ccc21)OC(=O)CCCCCCCCCCCCCCC` (centres unmarked) [FL-DHPE, N-(Fluorescein-5-Thiocarbamoyl)-1,2-Dihexadecanoyl-sn-Glycero-3-Phosphoethanolamine]: the “levels of FL compared to cells treated with the antiCD19 antibody” value (5 μM FL-DHPE overnight) is reported as “higher”. Further, for the setting “overnight 5 μM FL-DHPE or 20 min antiCD19 antibody labeled with FITC, compared to untreated control cells”, the “presence of FL by flow cytometry” value was “positive shift”.
